The results in this text go back to publication PMC12040169 (PLOS Biology, 2025).

The structures appear in SMILES notation. Some of the results follow.

This experiment concerns T1, CTL2-GFP (C. trachomatis L2/434/Bu, GFP-expressing).
T1 construct: L2/434/Bu, GFP-expressing
On the set-up: species or system HeLa; Intracellular C. trachomatis growth in HeLa cells, bulk GFP fluorescence relative to DMSO. The following applies: bulk GFP, single well; 28.5 h, 10 µM; inhibitor.
With `CN1CCC(N2CCN(C(=O)NCC(c3ccccc3)c3ccccc3)CC2)CC1` [CBK156096], the “% of control remaining” value came out at 103.714%.
As to `COCOc1ccc(-c2nc(-c3cnc(OC)nc3OC)cnc2N)cc1` [CBK063991], the “% of control remaining” value is 169.765%.
For `O=S(=O)(Nc1ccccc1OC(F)(F)F)c1ccc(N2CCNCC2)c2ccccc12` [CBK003933C] the value was 110.727%; for `CN(C)CCCNC(=O)c1cnc2cc(Cl)ccc2c1O` [CBK107354], 100%; for `CC(C)(C)OC(=O)NCCNCc1ccccc1C(F)(F)F` [CBK056695], 131.284%.
In the case of `O=C(COc1ccc(C(=O)c2ccc(F)cc2)cc1)c1ccc2c(c1)OCCO2` [CBK297536], the “% of control remaining” value was found to be 110.578%.
Turning to `CCN(CC)C(=O)CN1C(=O)[C@H]2CCCN2C(=O)c2ccccc21` [CBK286319], the “% of control remaining” value is given as 114.51%.
Turning to `CN(CC(=O)Nc1cccnc1N1CCNCC1)C(=O)c1ccccc1` [CBK028264T], the “% of control remaining” value stood at 100%.
For the compound `CS(=O)(=O)N1CCCc2cc(-c3csc(N4CCCC4)n3)ccc21` [CBK306093], the “% of control remaining” value was determined as 139.174%.
Turning to `Cc1noc(C)c1NC(=O)c1cnccc1C(F)(F)F` [CBK200306], the “% of control remaining” value is 104.42%.
Turning to `Cc1cc(NC(=O)c2nn(-c3ncccn3)c3ccccc23)n(C)n1` [CBK048505], the “% of control remaining” value is 100%.
As to `CCCS(=O)(=O)Nc1nccnc1N1CCN(c2ccc3c(c2)OCO3)CC1` [CBK048824], the “% of control remaining” value is reported as 107.628%.
Take `COc1cc(C=O)ccc1OC(=O)c1nsc(Cl)c1Cl` [CBK266619]: the “% of control remaining” value is listed as 118.71%.
As to `N=C(N)NC1=NC(=O)C(CC(=O)Nc2ccc(Oc3ccccc3)cc2)S1` (centres unmarked) [CBK300482], the “% of control remaining” value was found to be 141.025%.
Consider `Cc1cccn2c(CN3CC(O)C3)c(C(=O)N3CCOCC3)nc12` [CBK306857], for which the “% of control remaining” value was found to be 131.188%.
Consider `CC(=O)c1ccc(C(=O)N(C)Cc2ccc(F)cc2)s1` [CBK296660], for which the “% of control remaining” value turned out to be 126.69%.
`CC(C)(C)Cc1nnc(N)s1` [CBK050161]: the “% of control remaining” value is recorded as 124.139%.
The value for `NS(=O)(=O)c1ccc(C(=O)N2CCC3(CCN(C(=O)c4cc(F)c(F)cc4F)C3)C2)cc1` (centres unmarked) [CBK131385] was 127.678%.
Regarding `C#CCNS(=O)(=O)c1cccc(C(=O)NC2CCN(CCOC)CC2)c1` [CBK305714], the “% of control remaining” value was determined as 109.675%.
For `COC(=O)c1cnn(-c2cc(Oc3ccccc3C)ncn2)c1N` [CBK098668] the value was 94.6446%.
For `O=C(NCCN1CCC(O)(c2ccc(F)cc2)CC1)c1ccco1` [CBK283166], the “% of control remaining” value worked out at 88.4348%.
Turning to `Fc1cccc(SCc2ccccc2)c1` [CBK002912], the “% of control remaining” value turned out to be 93.4183%.
Regarding `O=C1CCCC2=C1C(c1ccccc1Cl)n1nnnc1N2` (centres unmarked) [CBK288151], the “% of control remaining” value is 143.572%.
In the case of `O=C(O)CCc1ccc(-c2cccs2)n1NC(=O)c1ccc(Cl)cc1` [CBK264738], the “% of control remaining” value turned out to be 111.489%.
As to `O=C(Nc1ccccc1)c1ccc2c(c1)C(=O)N(c1cccc(N3C(=O)c4ccc(C(=O)Nc5ccccc5)cc4C3=O)n1)C2=O` [CBK261197], the “% of control remaining” value stood at 112.325%.
For the compound `O=C1CCC(=O)N1CCOc1nccnc1OC1CCN(Cc2ccc([N+](=O)[O-])cc2)CC1` [CBK084343], the “% of control remaining” value was found to be 105.931%.
`O=C(O)c1cccc(N2C(=O)C3C(C2=O)C2(c4ccccc4)C(=O)C3(c3ccccc3)C(c3ccccc3)=C2c2ccccc2)c1` (centres unmarked) [CBK262439]: the “% of control remaining” value is reported as 130.095%.
Take `O=C(N1CCC(c2ccncc2)CC1)C1(c2ccccc2)CC1` [CBK285480]: the “% of control remaining” value worked out at 95.4043%.
For `CC(C)N1CCCC(CNC(=O)c2cc(C3CCCCC3)no2)C1` (centres unmarked) [CBK283294], the “% of control remaining” value is listed as 123.137%.
For `Cc1c(NC(=O)c2cn3c4c(c(N5CCN(C)CC5)c(F)cc4c2=O)OCN3C)c(=O)n(-c2ccccc2)n1C` [CBK263061], the “% of control remaining” value is reported as 100%.
Turning to `CN1CCN(CCCCC2(C)SC(NC3CCCCCC3)=NC2=O)CC1` (centres unmarked) [CBK113259], the “% of control remaining” value amounted to 117.787%.
The value for `COc1ccc(S(=O)(=O)N2CCN(C)CC2)cn1` [CBK269511] was 137.27%.
Consider `CC(C)c1noc(NCc2nnc3n2CCCCC3)n1` [CBK306352], for which the “% of control remaining” value turned out to be 97.7143%.
The value for `N=C1OC2CSCC2N1C(=O)Cc1ccc(F)cc1` (centres unmarked) [CBK284515] was 102.342%; that for `CC(C)(C)OC(=O)N1CCN(c2ccc(C(F)(F)F)c(Cl)n2)CC1` [CBK003030] was 102.365%; that for `COc1ccc(N2C(=O)CC(NNC(=O)CNC(C)=O)C2=O)cc1` (centres unmarked) [CBK267228] was 138.665%.
Turning to `O=C(NCCC(=O)N1CCCCC1)c1cccc(OCc2cscn2)c1` [CBK306384], the “% of control remaining” value was 92.0985%.
The value for `O=C(c1ccccc1)N1CCCC(c2nccnc2-c2cccc(C(F)(F)F)c2)C1` (centres unmarked) [CBK286218] was 88.0819%; that for `Cc1nc(Nc2cccc(C3CCCN3C(=O)COc3ccc(F)cc3)n2)sc1C` (centres unmarked) [CBK286019] was 113.53%.
With `COc1cccc(C(=O)Nc2cc(C)c3c(=O)oc4ccccc4c3n2)c1OC` [CBK287437], the “% of control remaining” value was 114.571%.
Consider `CC(=O)Nc1cccc(-c2cncc(-c3ccc(O)cc3)n2)c1` [CBK123795], for which the “% of control remaining” value came to 107.383%.
As to `CCn1cncc1C(=O)NCC1(c2ccccc2F)CCOCC1` [CBK281555], the “% of control remaining” value was determined as 99.6667%.
For `c1csc(CCN2CCC3(CC2)OCCc2c3[nH]c3ccccc23)c1` [CBK040156] the value was 102.755%; for `Cc1cccc(Oc2nc3c(C)cccn3c(=O)c2/C=C(\C#N)c2nc3ccccc3[nH]2)c1` [CBK266528], 147.869%.
For `COc1ccc(Nc2nc(N)nc(CSc3nncn3C)n2)cc1` [CBK266730] the value was 158.409%.
For `CN(C)S(=O)(=O)c1ccc(Cl)c(C(=O)Nc2ccc(C(=O)O)cc2)c1` [CBK265728] the value was 195.736%; for `COc1ccc(/N=c2/cc(C)[nH]c3ncnn23)cc1` [CBK287893], 114.939%.
Turning to `c1ccc(Oc2ccc(Nc3cccc(-c4ccc5ccccc5c4)n3)cc2)cc1` [CBK037636], the “% of control remaining” value came out at 122.595%.
Consider `CN(CCN1CCCCC1)C(=O)c1c2c(nn1C)CCCC2` [CBK281905], for which the “% of control remaining” value came out at 106.723%.
For `COc1ccc(-c2noc([C@@H]3C[C@H](NS(=O)(=O)Cc4ccccc4)CN3C)n2)cc1` [CBK288863] the value was 117.165%.
